Assay results from the supplement of paper PMC7238544.
Counter-ions that a name gives are not always drawn. ± gives the standard deviation of the averaged measurements. The list shows a part of the results. The data scatter; read single values as rough.

Experiments:
[1] = system: hAMSC donor 1; experiment: Hoechst total cell count ratio vs vehicle control; higher = more cells (less toxicity)
[2] = system: hAMSC donor 2; experiment: as above
[3] = system: hAMSC donor 1; experiment: transgenic luciferase activity (RLU/mg protein) fold change vs vehicle control (ratio); higher = more transgene expression
[4] = system: hAMSC donor 2; experiment: as above
[5] = system: hAMSC donor 1; experiment: transfection efficiency (EGFP+ cells / Hoechst count) fold change vs vehicle control (ratio); hAMSC are human adipose-derived mesenchymal stem cells given an EGFP-luciferase plasmid by lipofection; higher = enhanced transfection
[6] = system: hAMSC donor 2; experiment: as above
[7] = priming compound concentration 0.2 µM
[8] = priming compound concentration 1.7 µM
[9] = priming compound concentration 13 µM

SMILES	Hoechst total cell count ratio [1, 7]	Hoechst total cell count ratio [1, 8]	Hoechst total cell count ratio [1, 9]	Hoechst total cell count ratio [2, 7]	Hoechst total cell count ratio [2, 8]	Hoechst total cell count ratio [2, 9]	transgenic luciferase activity [3, 8]	transgenic luciferase activity [4, 9]	transfection efficiency [5, 7]	transfection efficiency [5, 8]	transfection efficiency [5, 9]	transfection efficiency [6, 7]	transfection efficiency [6, 8]	transfection efficiency [6, 9]	transgenic luciferase activity [3, 9]	transgenic luciferase activity [3, 7]	transgenic luciferase activity [4, 8]	transgenic luciferase activity [4, 7]
CN(CCOc1ccc(CC2SC(=O)NC2=O)cc1)c1ccccn1 (centres undefined) [Rosiglitazone maleate]	0.958 ± 0.15	0.97 ± 0.11	1.14 ± 0.061	1.48 ± 0.14	1.73 ± 0.061	1.03 ± 0.067	1.08 ± 0.037	1.41 ± 0.25	1.48 ± 0.12	1.89 ± 0.18	1.78 ± 0.16	1.02 ± 0.13	0.751 ± 0.017	1.17 ± 0.13				
N[C@@H](C(=O)N[C@@H]1C(=O)N2C(C(=O)O)=C(Cl)CS[C@H]12)c1ccccc1 [Cefaclor]	1.3 ± 0.13	1.2 ± 0.11	1.35 ± 0.062	1.3 ± 0.26	1.27 ± 0.13	0.916 ± 0.11			0.888 ± 0.091	1.15 ± 0.13	0.764 ± 0.075	1.04 ± 0.059	1.04 ± 0.094	0.769 ± 0.12	0.819 ± 0.21			
c1cnc(N2CCN(Cc3ccc4c(c3)OCO4)CC2)nc1 [Piribedil hydrochloride]	1.01 ± 0.2	1.08 ± 0.13	1.23 ± 0.037	1.36 ± 0.32	1.5 ± 0.25	1.07 ± 0.094	0.866 ± 0.54	0.952 ± 0.1	1.28 ± 0.4	1.5 ± 0.17	1.15 ± 0.51	0.921 ± 0.029	1.11 ± 0.16	1.3 ± 0.23				
CCCCCCNC(=O)n1cc(F)c(=O)[nH]c1=O [Carmofur]	1.19 ± 0.066	1.37 ± 0.12	1.21 ± 0.11	1.07 ± 0.17	0.735 ± 0.092	0.758 ± 0.011			1.47 ± 0.77	0.838 ± 0.076	0.735 ± 0.26	0.933 ± 0.18	1.02 ± 0.24	1.27 ± 0.21	0.675 ± 0.16			
COc1ccc(-c2oc3c(CC=C(C)C)c(O[C@@H]4O[C@H](CO)[C@@H](O)[C@H](O)[C@H]4O)cc(O)c3c(=O)c2O[C@@H]2O[C@@H](C)[C@H](O)[C@@H](O)[C@H]2O)cc1 [Icariin]	1.4 ± 0.11	1.25 ± 0.031	1.23 ± 0.052	1.23 ± 0.22	1.13 ± 0.082	1.23 ± 0.12			0.964 ± 0.18	1.12 ± 0.063	1.19 ± 0.48	0.995 ± 0.18	1.23 ± 0.29	0.902 ± 0.077	0.779 ± 0.064			
CN(C)[C@@H]1C(O)=C(C(N)=O)C(=O)[C@@]2(O)C(O)=C3C(=O)c4c(O)cccc4[C@@](C)(O)[C@H]3C[C@@H]12 [Tetracycline]	1.06 ± 0.076	1.12 ± 0.098	1.02 ± 0.09	0.976 ± 0.32	1.07 ± 0.09	0.73 ± 0.09			1.03 ± 0.17	1.05 ± 0.062	1.18 ± 0.12	1.49 ± 0.12	0.88 ± 0.084	0.818 ± 0.021		0.65 ± 0.14	0.623 ± 0.11	
Cc1nc2n(c(=O)c1CCN1CCC(c3noc4cc(F)ccc34)CC1)CCCC2 [Risperidone]	1.26 ± 0.14	1.14 ± 0.028	1.28 ± 0.089	1.1 ± 0.29	1.11 ± 0.19	1.32 ± 0.24			1.19 ± 0.33	1.36 ± 0.2	0.766 ± 0.37	1.3 ± 0.15	1.22 ± 0.27	0.894 ± 0.11	1.52 ± 1.6			
O=C(O)CCNC(=O)c1ccc(/N=N/c2ccc(O)c(C(=O)O)c2)cc1 [Balsalazide]	1.16 ± 0.15	1.12 ± 0.11	1 ± 0.043	0.913 ± 0.052	1.2 ± 0.15	1.29 ± 0.17			1.04 ± 0.093	1.05 ± 0.18	1.09 ± 0.15	1.17 ± 0.12	1.03 ± 0.29	0.959 ± 0.16		1.21 ± 0.7		
O=C(c1ccccc1)c1ccc2n1CCC2C(=O)O (centres undefined) [Ketorolac tromethamine]	1.22 ± 0.2	1.31 ± 0.17	1.25 ± 0.093	1.01 ± 0.2	1.23 ± 0.1	1.37 ± 0.12			0.949 ± 0.44	1.14 ± 0.22	1.29 ± 0.33	1.39 ± 0.2	0.851 ± 0.065	0.916 ± 0.092		1.2 ± 0.48		0.705 ± 0.35
O=S(=O)(O)CCS [Mesna]	1.21 ± 0.052	1.15 ± 0.094	1.24 ± 0.16	0.987 ± 0.3	1.35 ± 0.063	1.28 ± 0.066			0.55 ± 0.23	1.36 ± 0.64	1.83 ± 0.45	1.42 ± 0.26	0.754 ± 0.08	1.03 ± 0.1		1.09 ± 0.65		0.823 ± 0.018
CC(=O)Nc1ccc(CC(=O)O)cc1 [Actarit]	1.04 ± 0.11	1.03 ± 0.2	1.05 ± 0.058	0.996 ± 0.14	1.18 ± 0.034	1.14 ± 0.077			1 ± 0.35	1.31 ± 0.3	1.17 ± 0.22	1.09 ± 0.11	0.864 ± 0.076	1.09 ± 0.24		1.22 ± 0.77		
COc1cc([C@@H]2c3cc4c(cc3[C@@H](O[C@@H]3O[C@@H]5CO[C@@H](C)O[C@H]5[C@H](O)[C@H]3O)[C@H]3COC(=O)[C@H]23)OCO4)cc(OC)c1O [Etoposide]	1.06 ± 0.32	1.07 ± 0.2	0.715 ± 0.14	1.03 ± 0.4	1.24 ± 0.11	0.542 ± 0.049			1.01 ± 0.45	1.11 ± 0.27	1.89 ± 0.71	1.08 ± 0.27	1.08 ± 0.26	1.35 ± 0.19		0.737 ± 0.42	0.825 ± 0.2	
CC(=O)[C@]1(O)Cc2c(O)c3c(c(O)c2[C@@H](O[C@H]2C[C@H](N)[C@H](O)[C@H](C)O2)C1)C(=O)c1ccccc1C3=O [Idarubicin hydrochloride]	0.751 ± 0.12	0.213 ± 0.13	0.0457 ± 0.034	0.441 ± 0.11	0.149 ± 0.0056	0.0997 ± 0.019		0.0018 ± 0.0014	2.62 ± 0.57			1.75 ± 0.34	2.84 ± 0.64			0.38 ± 0.36		
CC(C(=O)O)c1ccc(-c2ccccc2)c(F)c1 (centres undefined) [Flurbiprofen]	1.28 ± 0.06	1.1 ± 0.12	1.32 ± 0.032	1.35 ± 0.014	1.49 ± 0.4	1.31 ± 0.11			0.889 ± 0.3	1.13 ± 0.36	0.748 ± 0.16	0.953 ± 0.1	1.23 ± 0.44	0.862 ± 0.17	0.516 ± 0.25			
CN(C)CCC=C1c2ccccc2CCc2ccccc21 [Amitriptyline hydrochloride]	1.4 ± 0.12	1.19 ± 0.097	1.47 ± 0.15	0.998 ± 0.4	0.901 ± 0.099	1.32 ± 0.18	0.765 ± 0.21		1.35 ± 0.32	1.13 ± 0.21	1.05 ± 0.17	0.904 ± 0.4	0.926 ± 0.19	0.976 ± 0.11				

2 entries drawn at random from those above:
SMILES	Hoechst total cell count ratio [1, 7]	Hoechst total cell count ratio [1, 8]	Hoechst total cell count ratio [1, 9]	Hoechst total cell count ratio [2, 7]	Hoechst total cell count ratio [2, 8]	Hoechst total cell count ratio [2, 9]	transgenic luciferase activity [3, 8]	transgenic luciferase activity [4, 9]	transfection efficiency [5, 7]	transfection efficiency [5, 8]	transfection efficiency [5, 9]	transfection efficiency [6, 7]	transfection efficiency [6, 8]	transfection efficiency [6, 9]	transgenic luciferase activity [3, 9]	transgenic luciferase activity [3, 7]	transgenic luciferase activity [4, 8]	transgenic luciferase activity [4, 7]
CN(C)[C@@H]1C(O)=C(C(N)=O)C(=O)[C@@]2(O)C(O)=C3C(=O)c4c(O)cccc4[C@@](C)(O)[C@H]3C[C@@H]12 [Tetracycline]	1.06 ± 0.076	1.12 ± 0.098	1.02 ± 0.09	0.976 ± 0.32	1.07 ± 0.09	0.73 ± 0.09			1.03 ± 0.17	1.05 ± 0.062	1.18 ± 0.12	1.49 ± 0.12	0.88 ± 0.084	0.818 ± 0.021		0.65 ± 0.14	0.623 ± 0.11	
CC(=O)Nc1ccc(CC(=O)O)cc1 [Actarit]	1.04 ± 0.11	1.03 ± 0.2	1.05 ± 0.058	0.996 ± 0.14	1.18 ± 0.034	1.14 ± 0.077			1 ± 0.35	1.31 ± 0.3	1.17 ± 0.22	1.09 ± 0.11	0.864 ± 0.076	1.09 ± 0.24		1.22 ± 0.77		
